Measurements reported in patent US11654096B2 (L'OREAL, priority 2017, dated 2023).

System: normal human epidermal keratinocytes (NHEKs)
Test: Neosynthesis of sulfated GAGs by NHEKs, [35S]-sulfate incorporation
Type: cell-based
Settings: t-test vs control
Procedure: The effects of the compounds on the neosynthesis of total and sulfated glycosaminoglycans (GAGs) were studied on two cell models, normal human epidermal keratinocytes (NHEKs) and normal human dermal fibroblasts (NHDFs). The effects of these compounds were evaluated by measuring: • the incorporation of [3H]-glucosamine into the total GAGs neosynthesized by NHEKs and by NHDFs, • the incorporation of [35S]-sulfate into the sulfated GAGs neosynthesized by NHEKs and by NHDFs.
The keratinocytes were seeded into wells and cultured in culture medium for 24 hours. The medium was then replaced with culture medium containing or not containing (control) the compounds to be tested or the reference (4-nitrophenyl β-D-xylopyranoside at 300 μM), then the cells were incubated for 72 hours with the addition of the [3H]-glucosamine radioactive label (total GAGs) or of the [35S]-sulfate radioactive label (sulfated GAGs) for the final 24 hours of incubation.
At the end of the incubation, the glycosaminoglycans were extracted from the cells with a chaotropic buffer. The GAGs were then purified by ion exchange chromatography: adsorption of the anionic molecules on Q-Sepharose beads and desorption of the molecules of low or medium anionic nature, with a suitable solution.
The radioactivity incorporated into the molecules left on the support (GAGs, predominantly) was measured by liquid scintillation.
All the experimental conditions were performed in n=3.
The inter-group comparisons were performed using Student's non-paired two-sided t-test. The statistical analyses can be interpreted if n≥5; however, for n<5, the data calculated are provided only by way of indication.

| Compound | p(1) (campaign 1, 10 μM) | p(1) (campaign 1, 100 μM) | p(1) (campaign 2, 1 μM) | p(1) (campaign 2, 10 μM) | p(1) (campaign 1, 300 μM) | p(1) (campaign 2, 300 μM) | p(1) (campaign 2, 100 μM) |
| --- | --- | --- | --- | --- | --- | --- | --- |
| OC[C@H]1O[C@@H](Oc2cc(O)cc(/C=C/c3ccc(O)cc3)c2)[C@H](O)[C@@H](O)[C@@H]1O [Polydatin] | ns (>0.05, Not significant) | ns (>0.05, Not significant) |  |  |  |  |  |
| Oc1ccc(C=Cc2cc(O)cc(O)c2)cc1 [Resveratrol] | * (0.01 to 0.05, Significant) | *** (<0.001, Extremely significant) | * (0.01 to 0.05, Significant) | ns (>0.05, Not significant) |  |  |  |
| O=[N+]([O-])c1ccc(O[C@@H]2OC[C@@H](O)[C@H](O)[C@H]2O)cc1 [4-Nitrophenyl β-D-xylopyranoside, 4-nitrophenyl β-D-xylopyranoside] |  |  |  |  | *** (<0.001, Extremely significant) | *** (<0.001, Extremely significant) |  |
| Oc1ccc(/C=C/c2cc(O)cc(O[C@@H]3OC[C@@H](O)[C@H](O)[C@H]3O)c2)cc1 [Compound 1a, 3-hydroxy-5-[(E)-2-(4-hydroxyphenyl)ethenyl]phenyl β-D-xylopyranoside] | ** (0.001 to 0.01, Very significant) | *** (<0.001, Extremely significant) |  | *** (<0.001, Extremely significant) |  |  | *** (<0.001, Extremely significant) |
| Oc1cc(O)cc(/C=C/c2ccc(O[C@@H]3OC[C@@H](O)[C@H](O)[C@H]3O)cc2)c1 [Compound 2a, 4-[(E)-2-(3,5-dihydroxy-phenyl)ethenyl]phenyl β-D-xylopyranoside] |  |  | * (0.01 to 0.05, Significant) | *** (<0.001, Extremely significant) |  |  |  |
